This is one part of the list.
Key:
Experiment in all cases: log2 fold change, soluble protein after heating vs DMSO (PISA); higher = thermal stabilisation; K562 cells, 10 uM, 30 min; active = over 0.2 and 3.5 SD of the protein, either way, in both replicates (recomputed)
[1] = compound: COC1=CC=C(C=C1)CN2C=CC3=C2C=C(C=C3)C(=O)NO
Procedure, shortened: (§1)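 Quantification of soluble protein used TMTpro 16plex LC-MS/MS, with channel sums equalised. Samples were the supernatant after 21,000xg for 90 min of pooled aliquots from K562 cells (2×10^6 cells/mL) treated with 10 μM compound for 30 min, heated for 3 min over 48°C-58°C, and extracted in PBS with 0.5% NP-40 at 4°C. Values, from duplicates, describe thermal stability against control samples on a log2 fold-change scale.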

By UniProt entry, the sequences of proteins in these tests, tags left out. Where a name states a change or a piece, a line headed by the entry shows the natural chain unless it says otherwise.
UniProt O00391: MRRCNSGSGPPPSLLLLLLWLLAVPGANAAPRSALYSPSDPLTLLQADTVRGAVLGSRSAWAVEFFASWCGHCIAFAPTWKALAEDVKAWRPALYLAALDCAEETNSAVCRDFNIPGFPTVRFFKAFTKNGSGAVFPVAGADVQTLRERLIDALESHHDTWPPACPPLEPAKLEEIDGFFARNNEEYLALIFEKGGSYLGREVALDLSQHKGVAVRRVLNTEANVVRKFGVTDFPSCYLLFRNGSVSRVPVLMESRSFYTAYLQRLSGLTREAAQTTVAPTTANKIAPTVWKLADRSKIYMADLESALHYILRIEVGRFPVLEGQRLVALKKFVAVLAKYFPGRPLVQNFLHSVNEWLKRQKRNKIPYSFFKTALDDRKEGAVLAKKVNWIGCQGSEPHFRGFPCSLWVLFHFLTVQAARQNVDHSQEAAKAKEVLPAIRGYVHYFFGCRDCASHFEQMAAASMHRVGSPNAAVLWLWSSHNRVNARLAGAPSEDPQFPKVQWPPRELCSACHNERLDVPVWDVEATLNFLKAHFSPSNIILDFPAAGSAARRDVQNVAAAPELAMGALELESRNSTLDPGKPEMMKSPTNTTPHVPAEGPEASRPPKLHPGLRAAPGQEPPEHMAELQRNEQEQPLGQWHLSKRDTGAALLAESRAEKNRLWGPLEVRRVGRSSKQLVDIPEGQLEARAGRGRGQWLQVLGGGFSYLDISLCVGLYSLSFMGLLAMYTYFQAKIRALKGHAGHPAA
UniProt Q9Y3T6: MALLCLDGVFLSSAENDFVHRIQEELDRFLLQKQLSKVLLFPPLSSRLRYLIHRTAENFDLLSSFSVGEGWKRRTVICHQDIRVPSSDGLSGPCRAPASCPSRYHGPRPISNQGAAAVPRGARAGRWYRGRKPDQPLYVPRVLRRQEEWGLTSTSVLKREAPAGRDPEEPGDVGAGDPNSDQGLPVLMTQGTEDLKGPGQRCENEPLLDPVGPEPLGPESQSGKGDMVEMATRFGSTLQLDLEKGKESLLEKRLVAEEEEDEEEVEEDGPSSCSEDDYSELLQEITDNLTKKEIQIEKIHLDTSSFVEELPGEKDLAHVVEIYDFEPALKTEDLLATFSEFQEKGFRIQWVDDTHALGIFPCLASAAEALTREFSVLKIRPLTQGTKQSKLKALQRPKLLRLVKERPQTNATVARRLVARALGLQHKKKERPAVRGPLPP
UniProt Q9UNM6: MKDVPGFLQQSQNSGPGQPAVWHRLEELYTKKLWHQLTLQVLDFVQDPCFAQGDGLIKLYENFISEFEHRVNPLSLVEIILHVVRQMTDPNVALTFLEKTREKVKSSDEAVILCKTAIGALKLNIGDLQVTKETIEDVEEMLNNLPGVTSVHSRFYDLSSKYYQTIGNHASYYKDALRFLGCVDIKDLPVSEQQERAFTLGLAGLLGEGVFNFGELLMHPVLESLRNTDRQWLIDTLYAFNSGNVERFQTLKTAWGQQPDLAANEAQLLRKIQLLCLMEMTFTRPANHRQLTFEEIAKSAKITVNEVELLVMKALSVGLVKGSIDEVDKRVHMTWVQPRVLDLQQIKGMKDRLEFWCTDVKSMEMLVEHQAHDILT
UniProt P48556: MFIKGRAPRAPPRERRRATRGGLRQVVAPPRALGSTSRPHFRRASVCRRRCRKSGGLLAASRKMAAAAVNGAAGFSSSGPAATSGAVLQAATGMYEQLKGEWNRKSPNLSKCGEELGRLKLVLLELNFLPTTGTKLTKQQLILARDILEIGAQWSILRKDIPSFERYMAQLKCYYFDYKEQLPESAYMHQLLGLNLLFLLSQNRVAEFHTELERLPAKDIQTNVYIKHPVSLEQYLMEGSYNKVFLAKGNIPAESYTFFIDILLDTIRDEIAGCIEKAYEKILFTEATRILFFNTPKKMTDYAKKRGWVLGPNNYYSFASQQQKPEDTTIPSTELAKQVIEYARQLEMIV

filanesib = compound: CON(C)C(=O)N1N=C(c2cc(F)ccc2F)S[C@@]1(CCCN)c1ccccc1 [filanesib]
Procedure, shortened: as §1

zotarolimus = compound: CO[C@H]1C[C@@H]2CC[C@@H](C)[C@@](O)(O2)C(=O)C(=O)N2CCCC[C@H]2C(=O)O[C@H]([C@H](C)C[C@@H]2CC[C@H](n3cnnn3)[C@H](OC)C2)CC(=O)[C@H](C)/C=C(\C)[C@@H](O)[C@@H](OC)C(=O)[C@H](C)C[C@H](C)/C=C/C=C/C=C/1C [zotarolimus]
Procedure, shortened: as §1

idasanutlin = compound: COc1cc(C(=O)O)ccc1NC(=O)[C@@H]1N[C@@H](CC(C)(C)C)[C@](C#N)(c2ccc(Cl)cc2F)[C@H]1c1cccc(Cl)c1F [idasanutlin]
Procedure, shortened: as §1

alisertib = compound: COc1cc(Nc2ncc3c(n2)-c2ccc(Cl)cc2C(c2c(F)cccc2OC)=NC3)ccc1C(=O)O [alisertib]
Procedure, shortened: as §1

gefitinib = compound: COc1cc2ncnc(Nc3ccc(F)c(Cl)c3)c2cc1OCCCN1CCOCC1 [gefitinib]
Procedure, shortened: as §1

[2] = compound: COc1cccc2cc(-c3nc([C@H]4CC[C@H](C(=O)O)CC4)n4ncnc(N)c34)[nH]c12
Procedure, shortened: as §1

pictilisib = compound: CS(=O)(=O)N1CCN(Cc2cc3nc(-c4cccc5[nH]ncc45)nc(N4CCOCC4)c3s2)CC1 [pictilisib]
Procedure, shortened: as §1

[3] = compound: CS(=O)(=O)c1ccc(-c2cnc(N)c(C(=O)Nc3ccccc3)n2)cc1
Procedure, shortened: as §1

crizotinib = compound: C[C@@H](Oc1cc(-c2cnn(C3CCNCC3)c2)cnc1N)c1c(Cl)ccc(F)c1Cl [crizotinib]
Procedure, shortened: as §1

[4] = compound: C[C@@H]1COCCN1C2=NC(=NC(=C2)C3(CC3)S(=O)(=O)C)C4=C5C=CNC5=CC=C4
Procedure, shortened: as §1

[5] = compound: C[C@H](C1=CC=C(C=C1)C(=O)NC2=C3C=CNC3=NC=C2)N
Procedure, shortened: as §1

duvelisib = compound: C[C@H](Nc1ncnc2nc[nH]c12)c1cc2cccc(Cl)c2c(=O)n1-c1ccccc1 [duvelisib]
Procedure, shortened: as §1

gandotinib = compound: Cc1cc(Nc2cc(CN3CCOCC3)c3nc(C)c(Cc4ccc(Cl)cc4F)n3n2)n[nH]1 [gandotinib]
Procedure, shortened: as §1

tozasertib = compound: Cc1cc(Nc2cc(N3CCN(C)CC3)nc(Sc3ccc(NC(=O)C4CC4)cc3)n2)n[nH]1 [tozasertib]
Procedure, shortened: as §1

[6] = compound: Cc1cc(SCc2sc(-c3ccc(C(F)(F)F)cc3)nc2C)ccc1OCC(=O)O
Procedure, shortened: as §1

doramapimod = compound: Cc1ccc(-n2nc(C(C)(C)C)cc2NC(=O)Nc2ccc(OCCN3CCOCC3)c3ccccc23)cc1 [doramapimod]
Procedure, shortened: as §1

ispinesib = compound: Cc1ccc(C(=O)N(CCCN)[C@@H](c2nc3cc(Cl)ccc3c(=O)n2Cc2ccccc2)C(C)C)cc1 [ispinesib]
Procedure, shortened: as §1

[7] = compound: COc1cc2nc(-c3cc(F)ccc3O)nc(N[C@@H]3CNC[C@H]3C(C)(C)O)c2cc1OC
Procedure, shortened: as §1

lapatinib = compound: CS(=O)(=O)CCNCc1ccc(-c2ccc3ncnc(Nc4ccc(OCc5cccc(F)c5)c(Cl)c4)c3c2)o1 [lapatinib]
Procedure, shortened: as §1

Measured: log2 fold change

QSOX1 (UniProt O00391)
inactive: [1] 0.079 | filanesib 0.002 | zotarolimus -0.124 | idasanutlin 0.017 | alisertib 0.243 | gefitinib 0.02 | [2] -0.153 | pictilisib 0.022 | [3] -0.042 | crizotinib -0.019 | [4] -0.011 | [5] -0.075 | duvelisib -0.08 | gandotinib -0.007 | tozasertib -0.152 | [6] 0.108 | doramapimod -0.081 | ispinesib 0.002

R3HCC1 (UniProt Q9Y3T6)
inactive: [1] 0.008 | filanesib 0.059 | zotarolimus 0.153 | idasanutlin 0.074 | [7] 0.084 | gefitinib 0.177 | lapatinib 0.151 | pictilisib -0.129 | [3] 0.083 | crizotinib -0.021 | [5] 0.009 | gandotinib 0.076 | tozasertib 0.061 | doramapimod 0.019 | ispinesib 0.022

PSMD13 (UniProt Q9UNM6)
inactive: [1] -0.127 | filanesib 0.095 | zotarolimus 0.009 | idasanutlin -0.054 | alisertib -0.04 | [7] -0.025 | gefitinib -0.026 | [2] -0.05 | lapatinib 0.038 | pictilisib -0.01 | [3] 0.048 | crizotinib 0.008 | [4] -0.012 | [5] 0.092 | gandotinib -0.016 | [6] 0.052 | doramapimod 0.026 | ispinesib -0.008

PSMD8 (UniProt P48556)
inactive: [1] -0.046 | filanesib 0.055 | zotarolimus -0.016 | idasanutlin 0.015 | alisertib -0.097 | [7] -0.038 | gefitinib -0.022 | [2] -0.061 | lapatinib 0.066 | pictilisib 0.097 | [3] 0.034 | crizotinib 0.011 | [4] -0.053 | [5] 0.156 | gandotinib 0.002 | [6] 0.059 | doramapimod 0.028 | ispinesib 0.015

Reference: the supplement of paper PMC10849652
